Where two headings read alike, the source gives them in different places. No constants are given. Whether binding was seen depends on the method and setting. Binding seen in cells or lysates may run through a third protein. Some results given as binding are weak or reduced against the parent protein; the word gives no strength. For some of these results: Sequences can lack the tags named with a protein. Blank lines part the entries; values can stand above or below the molecule they belong to.
Columns and labels:
myc-eIF4E S209E = myc-eIF4E S209E (UniProt P06730); test: co-IP
myc-eIF4E (wild type) [1] = molecular target: myc-eIF4E (wild type) (UniProt P06730); test: co-IP
HA-S6K1 T412E = HA-S6K1 T412E (UniProt P23443); test: co-IP
[2] = molecular target: HA-tagged S6K1 (αI variant), wild type (UniProt P23443); test: co-IP
HA-S6K1 T412A = HA-S6K1 T412A (UniProt P23443); test: co-IP
HA-S6K1 F16A = HA-S6K1 F16A (UniProt P23443); test: co-IP
HA-S6K1 F28A = HA-S6K1 F28A (UniProt P23443); test: co-IP
myc-eIF4E (wild type) [3] = molecular target: myc-eIF4E (wild type) (UniProt P06730); test: co-IP; remark: listed apart in the source
[4] = molecular target: eIF4E truncation mutant (30-217) (UniProt P06730); test: co-IP
eIF4E 30-217(S209A) = eIF4E 30-217(S209A) (UniProt P06730); test: co-IP
eIF4E 30-217(S209E) = eIF4E 30-217(S209E) (UniProt P06730); test: co-IP
[5] = molecular target: T1, GST tagged S6K1 fragment (78-85) (UniProt P23443); test: pull-down
T1 sequence: SVNRGPEK

By UniProt entry, the sequences of proteins in these tests, tags left out. Where a name states a change or a piece, a line headed by the entry shows the natural chain unless it says otherwise.
UniProt P06730, whole entry: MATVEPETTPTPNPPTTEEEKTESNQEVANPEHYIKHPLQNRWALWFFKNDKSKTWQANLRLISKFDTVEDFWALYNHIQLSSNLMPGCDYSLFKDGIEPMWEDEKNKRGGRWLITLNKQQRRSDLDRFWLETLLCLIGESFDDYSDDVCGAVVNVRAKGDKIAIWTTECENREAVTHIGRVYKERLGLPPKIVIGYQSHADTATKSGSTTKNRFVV
UniProt P23443, whole entry: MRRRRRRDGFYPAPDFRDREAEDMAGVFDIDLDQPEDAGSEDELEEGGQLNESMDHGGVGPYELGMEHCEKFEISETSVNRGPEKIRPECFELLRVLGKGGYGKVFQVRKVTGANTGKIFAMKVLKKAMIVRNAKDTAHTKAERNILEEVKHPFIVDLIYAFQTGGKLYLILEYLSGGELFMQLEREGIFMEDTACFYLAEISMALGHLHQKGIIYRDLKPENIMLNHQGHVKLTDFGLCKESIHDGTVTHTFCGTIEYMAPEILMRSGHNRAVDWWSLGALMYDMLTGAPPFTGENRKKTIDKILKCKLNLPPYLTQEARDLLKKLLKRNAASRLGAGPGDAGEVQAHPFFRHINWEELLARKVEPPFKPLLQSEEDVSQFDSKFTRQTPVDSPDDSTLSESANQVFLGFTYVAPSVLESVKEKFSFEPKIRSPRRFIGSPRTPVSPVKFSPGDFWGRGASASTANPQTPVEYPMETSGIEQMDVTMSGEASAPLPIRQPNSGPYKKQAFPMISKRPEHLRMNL
UniProt O60346, whole entry: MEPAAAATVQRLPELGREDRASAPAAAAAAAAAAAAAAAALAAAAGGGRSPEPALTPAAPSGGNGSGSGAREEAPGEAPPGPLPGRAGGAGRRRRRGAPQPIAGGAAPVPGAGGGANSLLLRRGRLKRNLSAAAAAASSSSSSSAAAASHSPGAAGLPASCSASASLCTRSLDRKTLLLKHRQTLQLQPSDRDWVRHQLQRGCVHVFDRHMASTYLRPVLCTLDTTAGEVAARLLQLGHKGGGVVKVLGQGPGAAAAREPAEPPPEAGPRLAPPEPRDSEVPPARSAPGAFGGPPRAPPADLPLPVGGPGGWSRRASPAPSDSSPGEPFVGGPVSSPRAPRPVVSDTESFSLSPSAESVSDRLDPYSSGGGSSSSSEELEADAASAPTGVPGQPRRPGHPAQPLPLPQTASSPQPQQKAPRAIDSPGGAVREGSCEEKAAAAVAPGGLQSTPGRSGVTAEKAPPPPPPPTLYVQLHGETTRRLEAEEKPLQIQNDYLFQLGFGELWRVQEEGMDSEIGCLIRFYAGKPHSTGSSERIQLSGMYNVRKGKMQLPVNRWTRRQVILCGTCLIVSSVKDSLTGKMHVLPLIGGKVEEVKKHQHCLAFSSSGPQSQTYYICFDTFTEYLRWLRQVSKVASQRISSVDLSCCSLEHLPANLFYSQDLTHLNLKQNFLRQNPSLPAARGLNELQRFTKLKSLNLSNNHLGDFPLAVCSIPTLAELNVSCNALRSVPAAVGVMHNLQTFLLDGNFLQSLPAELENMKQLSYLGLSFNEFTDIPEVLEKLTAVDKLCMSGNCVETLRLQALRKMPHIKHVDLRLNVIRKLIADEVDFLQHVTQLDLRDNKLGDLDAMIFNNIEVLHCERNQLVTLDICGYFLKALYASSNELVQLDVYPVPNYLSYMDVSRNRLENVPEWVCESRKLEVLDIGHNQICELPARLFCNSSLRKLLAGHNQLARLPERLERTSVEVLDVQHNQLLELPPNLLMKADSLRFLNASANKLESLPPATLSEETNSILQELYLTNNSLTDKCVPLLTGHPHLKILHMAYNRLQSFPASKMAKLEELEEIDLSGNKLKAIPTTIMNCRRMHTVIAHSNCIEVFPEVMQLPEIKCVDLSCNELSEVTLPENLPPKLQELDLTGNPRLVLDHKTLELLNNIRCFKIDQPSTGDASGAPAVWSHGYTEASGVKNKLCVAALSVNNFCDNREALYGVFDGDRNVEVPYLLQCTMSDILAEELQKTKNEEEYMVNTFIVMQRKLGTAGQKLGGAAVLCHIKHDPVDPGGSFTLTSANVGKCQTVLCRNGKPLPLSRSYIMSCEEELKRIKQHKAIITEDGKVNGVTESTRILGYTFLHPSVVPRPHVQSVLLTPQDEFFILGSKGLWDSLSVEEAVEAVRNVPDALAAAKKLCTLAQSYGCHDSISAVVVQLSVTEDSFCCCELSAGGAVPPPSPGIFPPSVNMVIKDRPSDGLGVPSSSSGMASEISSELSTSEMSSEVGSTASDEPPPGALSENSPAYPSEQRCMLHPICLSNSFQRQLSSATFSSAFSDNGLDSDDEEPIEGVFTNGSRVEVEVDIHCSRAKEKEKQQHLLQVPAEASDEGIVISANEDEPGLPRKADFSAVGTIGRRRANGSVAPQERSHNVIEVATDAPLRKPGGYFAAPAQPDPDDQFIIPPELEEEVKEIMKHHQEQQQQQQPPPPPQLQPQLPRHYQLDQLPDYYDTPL

[6] = molecular target: Flag-S6K1 (stably expressed in HEK293) (UniProt P23443); test: co-IP
myc-eIF4E (wild type) [7] = molecular target: myc-eIF4E (wild type) (UniProt P06730); test: co-IP; remark: listed apart in the source

binding (myc-eIF4E S209E): binds
binding (myc-eIF4E (wild type) [1]): binds
Molecule: endogenous S6K1 (from UniProt P23443 1-525) (enzyme)

binding (HA-S6K1 T412E): binds
binding [2]: binds
binding (HA-S6K1 T412A): binds
Molecule: myc-eIF4E (wild type) (from UniProt P06730 1-217)

binding (HA-S6K1 F16A): binds
binding [2]: binds
binding (HA-S6K1 F28A): no binding
Molecule: endogenous eIF4E (from UniProt P06730 1-217)

binding (myc-eIF4E (wild type) [3]): binds
binding [4]: no binding
binding (eIF4E 30-217(S209A)): no binding
binding (eIF4E 30-217(S209E)): binds
binding (myc-eIF4E (wild type) [1]): binds
Molecule: Flag-S6K1 (stably expressed in HEK293) (from UniProt P23443 1-525) (enzyme)

binding [5]: binds
binding [6]: binds
Molecule: HA-PHLPP1 (from UniProt O60346 1-1717) (enzyme)

binding (myc-eIF4E (wild type) [7]): binds
Molecule: FDIDL [intact TOS motif bearing peptide (FDIDL)]

Reference: paper doi:10.1101/2020.02.15.944892
